Measured values published in patent publication US10869474B2, “Fungicidal compositions” (UNIVERSITÄT BASEL, priority 2016, dated 2020).
Some entries share one result that the patent states for a list of compounds.

Tested on: Plasmopara viticola
Test: Plant-pathogen bioassay on grapevine seedlings under semi-controlled conditions
Type: in vivo
Details: grapevine cv. Chasselas seedlings, n = 6, Table 5

SMILES: COc1cc(/C=C/COC(=O)c2ccccc2)ccc1O [CB, coniferyl benzoate]
- Efficacy against P. viticola, mean ± SD (pure compound 0.25 mg ml^−1, listed as coniferyl benzoate): ≥ 80%
- Efficacy against P. viticola, mean ± SD (pure compound 1 mg ml^−1, listed as coniferyl benzoate): ≥ 98%

SMILES: O=C(/C=C/c1ccccc1)OC/C=C/c1ccc(O)cc1 [CC, p-coumaryl cinnamate]
- Efficacy against P. viticola, mean ± SD (pure compound 0.25 mg ml^−1, listed as p-coumaryl cinnamate): ≥ 80%
- Efficacy against P. viticola, mean ± SD (pure compound 1 mg ml^−1, listed as p-coumaryl cinnamate): ≥ 98%
